Measured values reported in paper PMC10163288.
The list shows a part of the results.

B1: il2ra_site1_2b5i_normal_mot_2cbe48e66a1f39b3fed734b245ab0a04_0001_000000015_0001_17_31_H_._HHH_b2_00579_0001_0000300020_0000001_1_af2pred_dldesign_0_af2pred (protein)
chain: SSSSSDEKKREEVLKLIEEAKELEDPFEAERVLFKAYFLAYSSGDEELVAEVERVFNELSSSSSS
B2: il2ra_site1_2b5i_sap_14_mot_a3b61943b7af24100a309c62926c5c00_0001_af2_000000225_0001_17_32_H_._HHH_b1_03251_0001_0000100011_0000001_0_0001_af2pred_dldesign_0_af … (protein)
chain: SSSSDAAWDEVERLFEEAERLRRAGKPEEARELLERALEIAEANNLTTPAADLRRLLERLSSSSS
B3: il2ra_site1_3nfp_normal_mot_HHH_b2_00857_af2_000000076_0001_1_16_H_._HHH_b1_07967_0001_0000700051_0000001_0_af2pred_0001_af2pred (protein)
chain: SSSSDVEERLEQLLKELEELAERNDTRRFAEVAKEIAKLVDRHDDEEAWRLLRRILREAAGSSSS
B4: il2ra_site1_1z92_normal_mot_HHH_b2_04375_000000267_0001_42_56_H_._HHH_b1_02142_af2_0001_0000200033_0000001_0_af2pred_0001_af2pred_1 (protein)
chain: SSSSDLEEEAKKLVEEIVEELGLSEEDERALRRSAEIAVERGFSEKSIRRALEDAARLLRSSSSS
B5: il2ra_site1_1z92_sap_18_mot_HHH_b1_07323_af2_000000200_0001_41_57_H_._HHH_b2_05598_0001_0000100002_0000001_0_0001 (protein)
chain: DEEALKKDIEAARRLGLPPRSIVLALLRFVRREVGDPEEAERILEELLEKLGDPELLEVLEELIK
B6: il2ra_site1_3nfp_sap_16_mot_HHH_b2_04366_af2_000000103_0001_1_19_H_._HEEHE_1202_0001_0000100003_0000001_1_0001_af2pred_0001_af2pred_swapped (protein)
chain: SKERVKEFLERQIKEYAGADDLEVEFRDRKIEVHVRGTDEKAEEASERAKKLVRKLGIEVEVEVE
B7: il2ra_site2_2erj_sap_28_mot_3b06bd03f1c6bceadc68eab912867b79_0001_000000296_0001_36_50_H_._HHH_b2_07644_af2_0001_0000200004_0000001_0_0001 (protein)
chain: SSSSSDELKRAYELANALMHLVARNDREEFERISEEFEEIVEKLDSRTAREILESLERLISSSSS
B8: il2ra_site1_2b5i_normal_mot_HHH_b2_04910_000000118_0001_1_19_H_._HHH_b1_07122_af2_0001_0000200012_0000001_0_af2pred_0001_af2pred_1 (protein)
chain: SSSSDTEEAVRLLEEANEAFRNGNPEEAEELLEEALEIAKEAGNRLLFRMIKVALEQVRKFSSSS
B9: il2ra_site2_3nfp_sap_21_mot_HHH_b2_00822_000000043_0001_41_55_H_._29ae1e08a2b4f440a426d3aa34ece464_0001_af2_0001_0000100009_0000001_0_0001 (protein)
chain: SSSSSKAEEYLKAALELLREALEHGDEEILRSHAEVVLAMAEDLGDEEAERLAEEILEELSSSSS
B10: il2ra_site1_3nfp_normal_mot_HHH_b1_00630_af2_000000193_0001_42_55_H_._HHH_b1_07411_af2_0001_0000200016_0000001_0 (protein)
chain: SSSSTSEERQEFEEALEEARQLLKEGNPEEARKLLEEILRELEELGDKVAARLVEEILRLISSSS
B11: il2ra_site2_2erj_sap_31_mot_HHH_b2_02949_000000055_0001_1_19_H_._HHH_b1_00412_af2_0001_0000800026_0000001_0_0001_af2pred_0001_af2pred_1_swapped (protein)
chain: SSSDREEVAEEVVRRLEEELGLDEEAQKLLELAAETAIEAGASPEEIELFLELFARLLLEESSSS
B12: il2ra_site2_2erj_sap_27_mot_d513a5c7d2e7ced7c66e00d3c8df735a_0001_000000137_0001_35_49_H_._HHH_b2_01770_0001_0000300008_0000001_0_0001 (protein)
chain: SSSSDQVVRAAEEFAEEAFERGDEDYLRLLLEFARRTAETVNDPELEELVEEIEELLERLRSSSS
B13: il2ra_site1_2b5i_normal_mot_HHH_b1_05188_af2_000000065_0001_43_56_H_._HHH_b2_06122_af2_0001_0000500034_0000001_1_af2pred_0001_af2pred (protein)
chain: SSSSSKQEEVLEIFHEASRLFREGNKEEARRLLEELLKELEERNDEKLRKQVEHFLEAIEKSSSS
B14: il2ra_site2_2erj_sap_10_mot_HHH_b1_07584_000000201_0001_42_55_H_._HHH_b1_02641_af2_0001_0000100003_0000001_0_0001 (protein)
chain: SSSSNEKLKELYELAVRIMHALTRGDPEEVEELLKELKELIEELNSDNAREILKWLEKLLNSSSS
B15: il2ra_site1_3nfp_sap_20_mot_HHH_b2_00213_000000088_0001_1_18_H_._HEEHE_0331_af2_0001_0000400039_0000001_0_0001_af2pred_dldesign_0_af2pred (protein)
chain: SSSSSLRKELERLLKKAYETGKKNDKEKLKKLLEEALKLAKENKAKLSVKFLERALKQLKSSSSS
B16: il2ra_site1_1z92_normal_mot_HHH_b2_07193_000000005_0001_24_40_H_._66959ead3e6c57cb3ef8243f3eb758e0_0001_1_af2_0001_0000200023_0000001_0_af2pred_0001_af2pred (protein)
chain: SDTKEALREAVEKNDEELLREFIELLLEISGDPKLVERFLKVLVRKLGLPPEVLEELRELLEELT
B17: il2ra_site2_3nfp_normal_mot_HHH_b1_01086_af2_000000264_0001_39_53_H_._HHH_b1_01143_0001_0001200099_0000001_0_af2pred_0001_af2pred (protein)
chain: SSSSDEEEQRVEELLKRIEELKKEGDEEEVRRLLEEILRIARESNNPHLLWILLELRERLESSSS
B18: il2ra_site1_3nfp_sap_16_mot_HHH_b2_02744_000000262_0001_1_20_H_._HHH_b2_06351_0001_0000200035_0000001_0_0001 (protein)
chain: SSSSSAEEAFKLSREIMKLLKEGNEEEAKKLIEELKEWAEEANDPIAERLARQLEEALRRSSSSS

biological target: il2ra, P01589; assay: yeast display titration

Apparent Kd, inactive:
B1 no binding seen
B2 no binding seen
B3 no binding seen
B4 no binding seen
B5 no binding seen
B6 no binding seen
B7 no binding seen
B8 no binding seen
B9 no binding seen
B10 no binding seen
B11 no binding seen
B12 no binding seen
B13 no binding seen
B14 no binding seen
B15 > 1470 nM
B16 no binding seen
B17 no binding seen
B18 no binding seen

Reprinted at random: 2 entries already listed, in no set order.
Apparent Kd, inactive:
B3 no binding seen
B2 no binding seen
